Values from PubChem BioAssay AID1259308 (NCATS, 2017)
Shown is a random part of about 59,000 deposited reagents. Of all reagents, about 1,510 (2.6%) were called active. 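Calls use total luciferase alone and ignore viability, so some active siRNAs may act by altering cell number.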 The numbers tell different reagents against one gene apart. Not all columns of the deposit are shown. No sequences are given here.

- Assay: 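Knock-downs that increase output of a recombinant reporter protein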 (primary screen)
- Cells: human HEK293 embryonic kidney cells stably expressing firefly luciferase (HEK-CMV-Luc2-Hygro)
- Reagents: single siRNA against human genes, 0.8 pmol siRNA per well
- Time to read-out: 72 h
- Measured: 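Reporter luminescence and viable-cell signal on separate replicate plates, given as percent of non-targeting control and median/MAD z-scores, plus per-cell luciferase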
- Scale: total luciferase, z-score: higher = more reporter protein produced
- Rule for the call: 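An siRNA counts as active if its total luciferase robust z-score exceeds 3; genes with two or more such siRNAs out of three were retested with fresh siRNAs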
- Calls: active = raised luciferase; inactive = no rise

target gene | siRNA no. | total luciferase, z-score | Outcome
TSPAN18 (GeneID 90139) | 1 | -0.0519 | inactive
TSPAN18 (GeneID 90139) | 2 | 0.17 | inactive
TSPAN18 (GeneID 90139) | 3 | -0.239 | inactive
COX4I1 (GeneID 1327) | 1 | 1.43 | inactive
COX4I1 (GeneID 1327) | 2 | -1 | inactive
COX4I1 (GeneID 1327) | 3 | 0.397 | inactive
TANGO2 (GeneID 128989) | 1 | -1.17 | inactive
TANGO2 (GeneID 128989) | 2 | -0.246 | inactive
TANGO2 (GeneID 128989) | 3 | -0.691 | inactive
CLEC6A (GeneID 93978) | 1 | 1.99 | inactive
CLEC6A (GeneID 93978) | 2 | -0.64 | inactive
CLEC6A (GeneID 93978) | 3 | 0.126 | inactive
SESN1 (GeneID 27244) | 1 | 1.03 | inactive
SESN1 (GeneID 27244) | 2 | -0.295 | inactive
SESN1 (GeneID 27244) | 3 | 0.322 | inactive
DENND10 (GeneID 404636) | 1 | -0.00583 | inactive
DENND10 (GeneID 404636) | 2 | 1.67 | inactive
DENND10 (GeneID 404636) | 3 | -2.87 | inactive
IL2RB (GeneID 3560) | 1 | -1.18 | inactive
IL2RB (GeneID 3560) | 2 | 1.23 | inactive
IL2RB (GeneID 3560) | 3 | 0.863 | inactive
PCYOX1L (GeneID 78991) | 1 | -1.6 | inactive
PCYOX1L (GeneID 78991) | 2 | -0.754 | inactive
PCYOX1L (GeneID 78991) | 3 | 0.74 | inactive
IL23A (GeneID 51561) | 1 | 0.294 | inactive
IL23A (GeneID 51561) | 2 | -0.141 | inactive
IL23A (GeneID 51561) | 3 | 0.0333 | inactive
OXCT1 (GeneID 5019) | 1 | -1.31 | inactive
OXCT1 (GeneID 5019) | 2 | -0.742 | inactive
OXCT1 (GeneID 5019) | 3 | -0.479 | inactive
SAP18 (GeneID 10284) | 1 | 0.277 | inactive
SAP18 (GeneID 10284) | 2 | 0.225 | inactive
SAP18 (GeneID 10284) | 3 | -0.545 | inactive
GNGT1 (GeneID 2792) | 1 | -0.912 | inactive
GNGT1 (GeneID 2792) | 2 | 0.866 | inactive
GNGT1 (GeneID 2792) | 3 | 0.203 | inactive
DPPA2 (GeneID 151871) | 1 | 0.704 | inactive
DPPA2 (GeneID 151871) | 2 | 0.31 | inactive
DPPA2 (GeneID 151871) | 3 | -1.54 | inactive
